Laboratory results published in the supplement of paper PMC11264405.

Experiments:
Experiment in all cases: minimum inhibitory concentration
linezolid = compound: CC(=O)NC[C@H]1CN(c2ccc(N3CCOCC3)c(F)c2)C(=O)O1 [linezolid]
clindamycin = compound: CCC[C@@H]1C[C@@H](C(=O)N[C@@H]([C@H]2O[C@H](SC)[C@H](O)[C@@H](O)[C@H]2O)[C@H](C)Cl)N(C)C1 [clindamycin]
fidaxomicin = compound: CCc1c(Cl)c(O)c(Cl)c(O)c1C(=O)O[C@H]1[C@H](O)[C@H](OC)[C@H](OC/C2=C\C=C\C[C@H](O)/C(C)=C/[C@H](CC)[C@@H](O[C@@H]3OC(C)(C)[C@@H](OC(=O)C(C)C)[C@H](O)[C@@H]3O)/C(C)=C/C(C)=C/C[C@@H]([C@@H](C)O)OC2=O)O[C@@H]1C [fidaxomicin]
tigecycline = compound: CN(C)c1cc(NC(=O)CNC(C)(C)C)c(O)c2c1C[C@H]1C[C@H]3[C@H](N(C)C)C(O)=C(C(N)=O)C(=O)[C@@]3(O)C(O)=C1C2=O [tigecycline]
rifampicin = compound: CO[C@H]1/C=C/O[C@@]2(C)Oc3c(C)c(O)c4c(O)c(c(/C=N/N5CCN(C)CC5)c(O)c4c3C2=O)NC(=O)/C(C)=C\C=C\[C@H](C)[C@H](O)[C@@H](C)[C@@H](O)[C@@H](C)[C@H](OC(C)=O)[C@@H]1C [rifampicin]
imipenem = compound: C[C@@H](O)[C@H]1C(=O)N2C(C(=O)O)=C(SCCNC=N)C[C@H]12 [imipenem]
meropenem = compound: C[C@@H](O)[C@H]1C(=O)N2C(C(=O)O)=C(S[C@@H]3CN[C@H](C(=O)N(C)C)C3)[C@H](C)[C@H]12 [meropenem]
metronidazole = compound: Cc1ncc([N+](=O)[O-])n1CCO [metronidazole]

Test System	minimum inhibitory concentration (linezolid) [µg/mL]	minimum inhibitory concentration (clindamycin) [µg/mL]	minimum inhibitory concentration (fidaxomicin) [µg/mL]	minimum inhibitory concentration (tigecycline) [µg/mL]	minimum inhibitory concentration (rifampicin) [µg/mL]	minimum inhibitory concentration (imipenem) [µg/mL]	minimum inhibitory concentration (meropenem) [µg/mL]	minimum inhibitory concentration (metronidazole) [µg/mL]
Clostridioides difficile PCR ribotype 003 isolate #28 (European region: South, country: Italy, isolate source: Human, ribotype: 003)	2	8	0.06	0.125	< 0.001	4	2	0.25
Clostridioides difficile PCR ribotype 005 isolate #35 (European region: East, country: Poland, isolate source: Human, ribotype: 005)	2	8	0.06	< 0.03	< 0.001	2	2	1
Clostridioides difficile PCR ribotype 010 isolate #53 (European region: West, country: Netherlands, isolate source: Human, ribotype: 010)	2	0.5	0.06	0.125	< 0.001	2	2	0.25
Clostridioides difficile PCR ribotype 010 isolate #54 (European region: South, country: Italy, isolate source: Human, ribotype: 010)	1	< 0.125	0.125	< 0.03	< 0.001	2	2	0.25
Clostridioides difficile PCR ribotype 014 isolate #69 (European region: South, country: Italy, isolate source: Human, ribotype: 014)	2	16	0.125	< 0.03	< 0.001	2	2	0.25
Clostridioides difficile PCR ribotype 014 isolate #72 (European region: South, country: Italy, isolate source: Human, ribotype: 014)	2	16	0.015	< 0.03	< 0.001	2	2	< 0.125
Clostridioides difficile PCR ribotype 014 isolate #78 (European region: West, country: Belgium, isolate source: Human, ribotype: 014)	2	0.5	0.015	0.125	< 0.001	1	2	< 0.125
Clostridioides difficile PCR ribotype 018 isolate #91 (European region: South, country: Italy, isolate source: Human, ribotype: 018)	2	8	0.03	< 0.03	> 32	4	4	0.25
Clostridioides difficile PCR ribotype 018 isolate #92 (European region: South, country: Italy, isolate source: Human, ribotype: 018)	2	16	0.06	< 0.03	< 0.001	4	4	< 0.125
Clostridioides difficile PCR ribotype 050 isolate #327 (European region: West, country: Austria, isolate source: Animal, ribotype: 050)	2	16	0.015	< 0.03	< 0.001	2	4	< 0.125
Clostridioides difficile PCR ribotype 077 isolate #177 (European region: East, country: Poland, isolate source: Human, ribotype: 077)	2	8	0.03	< 0.03	< 0.001	2	2	< 0.125
Clostridioides difficile PCR ribotype 077 isolate #178 (European region: East, country: Poland, isolate source: Human, ribotype: 077)	2	16	0.06	< 0.03	< 0.001	2	2	< 0.125
Clostridioides difficile PCR ribotype 078 isolate #184 (European region: South, country: Greece, isolate source: Human, ribotype: 078)	2	2	0.125	< 0.03	< 0.001	2	2	< 0.125

Random excerpt: two records from the list.
Test System	minimum inhibitory concentration (linezolid) [µg/mL]	minimum inhibitory concentration (clindamycin) [µg/mL]	minimum inhibitory concentration (fidaxomicin) [µg/mL]	minimum inhibitory concentration (tigecycline) [µg/mL]	minimum inhibitory concentration (rifampicin) [µg/mL]	minimum inhibitory concentration (imipenem) [µg/mL]	minimum inhibitory concentration (meropenem) [µg/mL]	minimum inhibitory concentration (metronidazole) [µg/mL]
Clostridioides difficile PCR ribotype 003 isolate #28 (European region: South, country: Italy, isolate source: Human, ribotype: 003)	2	8	0.06	0.125	< 0.001	4	2	0.25
Clostridioides difficile PCR ribotype 077 isolate #177 (European region: East, country: Poland, isolate source: Human, ribotype: 077)	2	8	0.03	< 0.03	< 0.001	2	2	< 0.125
